Laboratory results taken from PubChem BioAssay AID1347426 (Functional Genomics Laboratory (NCATS/FGL), 2020).
Screen size: about 31,000 sequences; about 1,400 (4.5%) were called active.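 How the source made its calls: active means median seed-adjusted z-score above 1 or below -1; inactive means the rest.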 Some of the results follow.

Test: Novel Modifiers of Survival Motor Neuron (SMN) Protein: Gene Identification via Genome-wide siRNA Screen;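 further: luminescence tracks full-length SMN protein made from the SMN2 reporter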
Details: HEK293T SMN2-luciferase reporter, siRNA knockdown, 72 h; actives lie on both sides
In short: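 HEK293T cells stably carrying an SMN2 promoter/splicing cassette–luciferase reporter were reverse-transfected with 1 pmol siRNA per well (druggable-genome library, 3 siRNAs per gene) and grown 72 h at 37 °C. Luminescence, normalized to negative-control siRNA and log10-transformed, was scored as MAD.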

Sequence	median seed-adjusted z-score
CUAUGUUCAUGGUGGAGUATT against G3BP2	inactive: -0.336
GAGCAGGACGAGUACGACATT against BCAR1	inactive: -0.469
GUUCGUGAAUGGAAUAAUATT against TTLL5	inactive: 0
GUGUCAAAGUUUUUCAUAATT against ZNF718	inactive: 0.0564
GAUACGUCCUUUUGCGGUATT against FARSB	inactive: 0.317
GCAUGCUCUUUGUUAGGAATT against DARS2	inactive: 0.0673
CCAUAUUGUGGAUGGAUAATT against SEMA6A	inactive: -0.192
GGUCUAAUCAUGCCGCAGATT against HUWE1	inactive: 0.734
AGACAUACUCCAAACCUUUTT against IL8	inactive: 0.0521
AGUUCAUCGAUGACAUGGATT against COL6A2	inactive: 0.0119
GCAAUGACCGUACAUCCAATT against ZNF654	inactive: 0.199
GGUUAUACACUUUCGGAUATT against MAP3K15	inactive: -0.315
GUUCAGGUUUGGUUCAAGATT against CRX	inactive: -0.156
GGGACAAAGUGGGCGAACATT against SDR9C7	inactive: 0
GGAUGUUCGUGAUGCUGAATT against FUSIP1	inactive: 0.865
GCGAGUUUGUUGUGACAUUTT against JARID1A	inactive: 0.189
GAAUGGAAAGUGCAACUUATT against ZNF266	inactive: 0.426
GCACUAUCCAGUUUGUGGATT against TUBA3E	inactive: -0.35
GAAUGACGAUGACUUUACATT against SRBD1	inactive: 0.169
GGCCUUUCGCUGUAUCAAATT against YY1AP1	inactive: 0.0453
CCUCAGCAGUGGUACCUGUTT against FURIN	inactive: 0.0975
GCCUAUCACAUUACAGAUATT against ARL9	inactive: 0.98

Sequence	median seed-adjusted z-score
GCAAGAUGAUUUUAUCUCUTT against CDA	inactive: 0.471
GUCUGUCACCGUAUCGUCATT against FGD6	inactive: 0.536
CAGUUAAGACUGUAGAGAATT against SQRDL	inactive: 0.455
CAUAGAAACUGAUGCAGAATT against ENOSF1	inactive: 0.496
CUAUGGAAGAUACUAUAUUTT against GGH	inactive: -0.105
GGGACUCAAUUGACGAAAATT against DNAJC16	inactive: 0
GCAUCAUCUAGAGCGGAUATT against LRRC4C	inactive: -0.122
CCACAGGAGAAGAUUGUCATT against CYP1A2	inactive: 0
GGCAUUAUCUGGAUCACUUTT against PATE1	active: 1.21
GCAACGCAGUGAGGAGUAUTT against NIN	inactive: 0.646
CAUCCAUCAAGAGACCAAATT against HTR3D	inactive: 0.776
CGAUGAGCCUGCUAUACAATT against ID2	inactive: 0.783
GCAGCAAGCCGACAUCAUATT against RTEL1	inactive: 0.458
GAAGGAAGAUGGUAAGGGATT against IL6ST	inactive: -0.518
CAAGAACGUGCACAUUUUUTT against SLC25A4	inactive: -0.379
GCUUCUACCUUUACACGGATT against PDE1A	inactive: 0
GCAAGGCGGCUCUAGCUAATT against PDLIM1	inactive: -0.189
GUGGAUCUGUGGAACAUGATT against RCL1	inactive: 0.0807
GGCAUGUCCUCACCCAAUATT against ESPN	inactive: 0
CUUCUUCAUCGUUAACAUUTT against ADRB2	inactive: 0.0987
CAGCAAAUUCCAUCGUGUATT against PPIB	inactive: 0.038
GAUUAUUCCGAGUACUUGATT against YY2	inactive: 0.363

Reprinted from the results shown for reference:
Sequence	median seed-adjusted z-score
GCACUAUCCAGUUUGUGGATT against TUBA3E	inactive: -0.35
GAAUGACGAUGACUUUACATT against SRBD1	inactive: 0.169
GGCCUUUCGCUGUAUCAAATT against YY1AP1	inactive: 0.0453
CCUCAGCAGUGGUACCUGUTT against FURIN	inactive: 0.0975
GCCUAUCACAUUACAGAUATT against ARL9	inactive: 0.98
GCAAGAUGAUUUUAUCUCUTT against CDA	inactive: 0.471
GUCUGUCACCGUAUCGUCATT against FGD6	inactive: 0.536
CAGUUAAGACUGUAGAGAATT against SQRDL	inactive: 0.455
CAUAGAAACUGAUGCAGAATT against ENOSF1	inactive: 0.496
CUAUGGAAGAUACUAUAUUTT against GGH	inactive: -0.105
GGGACUCAAUUGACGAAAATT against DNAJC16	inactive: 0
GCAUCAUCUAGAGCGGAUATT against LRRC4C	inactive: -0.122
CCACAGGAGAAGAUUGUCATT against CYP1A2	inactive: 0
GGCAUUAUCUGGAUCACUUTT against PATE1	active: 1.21
GCAACGCAGUGAGGAGUAUTT against NIN	inactive: 0.646
CAUCCAUCAAGAGACCAAATT against HTR3D	inactive: 0.776
CGAUGAGCCUGCUAUACAATT against ID2	inactive: 0.783
GCAGCAAGCCGACAUCAUATT against RTEL1	inactive: 0.458
GAAGGAAGAUGGUAAGGGATT against IL6ST	inactive: -0.518
CAAGAACGUGCACAUUUUUTT against SLC25A4	inactive: -0.379
GCUUCUACCUUUACACGGATT against PDE1A	inactive: 0
GCAAGGCGGCUCUAGCUAATT against PDLIM1	inactive: -0.189
GUGGAUCUGUGGAACAUGATT against RCL1	inactive: 0.0807
GGCAUGUCCUCACCCAAUATT against ESPN	inactive: 0
CUUCUUCAUCGUUAACAUUTT against ADRB2	inactive: 0.0987

Continuation:

Sequence	median seed-adjusted z-score
CCCUGGUGUUUAUCAAGUATT against PSEN1	inactive: -0.679
GCUAUAGACUUGCAAGAUATT against KCNT2	inactive: 0.449
AUCCUUCCCUGAAUCAUCATT against KLRC2	inactive: -0.472
CCAACUCCUUGAUUAAAGATT against PARK2	inactive: 0.146
CCAACACCUGUACCCAAUATT against SMARCC1	inactive: -0.0304
CAAUUGACCUUACGCAGAATT against TLL1	inactive: 0.396
GGUGGUAUCUGUUUCCGUATT against PCAF	inactive: -0.00665
GCCUGUUGCCUGAGAGACATT against PROP1	inactive: 0.303
CACAAGUUAUUGUUCCAGATT against GTF2A1	inactive: -0.0209
CCAUAUAAGGGAGAAGAUATT against ZNF200	inactive: 0.498
CGCAGACACUGUCAAAGAATT against HS3ST4	inactive: 0.284
GAUUCUCAUUCGUUGACCATT against FGA	inactive: 0.267
GAUUCGCAUCUUCAAAAUATT against RAB33A	inactive: 0.307
CAAUCAAAGGGAAACUUGATT against TPT1	inactive: 0.236
CGGAGUUUGUUGAUAUCGATT against LGI2	inactive: 0
CGAAAAUCUCUCUACCGAUTT against NUP153	inactive: -0.847
GUAUAUCAGUUCCAGUUUATT against RANBP3	inactive: -0.211
CUGCGGAUGUUUAACAGGATT against ENTPD6	inactive: 0.438
GCACUAUCCUGACCUUCCUTT against KCNG1	inactive: -0.00995
CGGUGUACCUUCUCACUUUTT against GPR42	inactive: -0.0972
CAAGAUUUCUUAGGGCGAATT against STYK1	inactive: 0.106
GAGUACCUCUGGGACGACATT against GBGT1	inactive: 0.48

Sequence	median seed-adjusted z-score
GGAAACUCUGUUUACGUUATT against BTAF1	active: -1.19
GGAGGGAUAUGUUCCACGUTT against TP53BP2	inactive: 0.157
GAGCUUCGAUGUAAAGGGATT against PDGFRL	inactive: 0.0203
GGGACGACUGCAUCAAGUATT against SLC27A1	inactive: 0.253
CACUGGUAUUUAUAUUUCATT against SNAI1	inactive: 0.0196
GGCUCAAUGUAUAGGAUCATT against PHF16	inactive: 0
CGGGACAGAUUUACACGUATT against DPF1	inactive: 0.144
CGAUUUAUCCGAUGCCCUUTT against CD99	inactive: 0
GCAUAGCUGGUAUAGACCATT against XPC	inactive: -0.564
GAGCGAGAGUUUUUCUUCATT against HOXC11	inactive: -0.188
UGACAAGGAUUAUUUCCUATT against HSPE1	inactive: 0.0101
GGAACUGUAUAGGUCAAAATT against CYP4V2	inactive: 0
CAGGAGAAGUUAAUCCAGUTT against AKR1B1	inactive: 0.0107
ACAUAGGACAGGAUAUUUATT against ZNF697	inactive: 0.0503
GCAGAUUUCAGAAUCUAUATT against IL4R	inactive: 0
GGUGCAAUCAGAUAACAUATT against PPAPDC1A	inactive: 0.634
CAUCGGCUAUGACAACAUUTT against PSTPIP2	inactive: 0.0136
CCUCAGAAGCUAUCCCUAATT against ITGA2B	inactive: 0.172
GCAGCUCAACGGCAAAGAATT against RBM14	inactive: -0.0317
CCGUGUCCAGGAACCUAUATT against LPHN3	inactive: -0.0576
CCCUAGUGGUGACCGUUAATT against PCDHA3	inactive: 0.311
CUAGUAACAUAUGAUCUAATT against UCP1	inactive: -0.0744

Sequence	median seed-adjusted z-score
CUCUUGAUAGUUACCGGAATT against TTK	inactive: -0.658
GCAGCAGAAUAGUGUGGUATT against TRIM56	inactive: -0.452
CAGGCAUCAUAUUUUGAAATT against NUDT3	inactive: 0.674
CAGUUGACCUGGGACCUUATT against IL3RA	inactive: -0.951
CUCAUACUCUGAAUCUUGATT against ADH6	inactive: -0.132
GCUCCGAAGUUCAACCAUUTT against HTR2B	inactive: -0.325
AGGAGACUCUUUGCUACAATT against MRGPRX1	inactive: -0.188
GAACUGUCGGCGGAACAUUTT against MFAP3L	active: 1.03
CGUAUAUAGAGUUCUCAGATT against PABPN1	inactive: -0.757
CAAUCCAUGUCAUAGGGAATT against ZNF702	inactive: 0.204
GAACAAAGGCUACCUGGUATT against GPR137	inactive: 0.564
CUAUCAAGGUUUUGGUACATT against SCN7A	inactive: 0
GAGGAAAGCCUAUAUUAUUTT against TPTE2	inactive: -0.0675
GCGAUAUUGUCAUUAUUGATT against MTAP	inactive: -0.0621
GCUGUCAUUUUGACUAAUATT against CDH19	inactive: -0.409
GCACUGAAGCCCAAGCUUUTT against IKZF4	inactive: -0.426
AGAUGAAUGUGUGCGACAATT against U2AF1L4	inactive: 0
UGUUGGUUUUGUGAUCUUUTT against RBPMS2	inactive: -0.485
CCAAUGAGAUGGUCAAGAATT against CDO1	inactive: 0.336
GCAUAUAGGCGGGAGCAGATT against POLE3	inactive: -0.0612
